The text below walks through data of article doi:10.1101/2023.01.03.522599.

By UniProt entry, the sequences of proteins in these tests, tags left out. Where a name states a change or a piece, a line headed by the entry shows the natural chain unless it says otherwise. Residues count along the entry.
UniProt Q9NZQ7, 239-259: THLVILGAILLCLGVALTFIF
UniProt Q9NZQ7, 19-238: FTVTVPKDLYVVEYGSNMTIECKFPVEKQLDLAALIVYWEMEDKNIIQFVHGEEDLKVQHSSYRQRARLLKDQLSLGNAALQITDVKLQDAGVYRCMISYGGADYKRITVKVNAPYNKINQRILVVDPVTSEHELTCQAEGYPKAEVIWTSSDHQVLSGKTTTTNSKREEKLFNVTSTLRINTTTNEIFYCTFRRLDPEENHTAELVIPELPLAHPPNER
UniProt Q9NZQ7, 239-290: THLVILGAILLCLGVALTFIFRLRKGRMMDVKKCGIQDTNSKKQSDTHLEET
UniProt Q9NZQ7, 260-290: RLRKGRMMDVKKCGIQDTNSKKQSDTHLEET

Assay in all cases: pull-down
The target of assay [1] is human PD-L1 extracellular domain, BRIL fused to the C-terminus, C-terminally His-tagged (human) (UniProt Q9NZQ7).
Assay [2] addresses human PD-L1 transmembrane domain triple mutant I243A/I247A/F257A, BRIL fused to the C-terminus, C-terminally His-tagged (human) (UniProt Q9NZQ7).
Assay [3] addresses human PD-L1 cytosolic domain, BRIL fused to the C-terminus, C-terminally His-tagged (human) (UniProt Q9NZQ7).
Assay [4] concerns the target human PD-L1 transmembrane and cytosolic domains, BRIL fused to the C-terminus, C-terminally His-tagged (human) (UniProt Q9NZQ7).
In assay [5] the target is human PD-L1 transmembrane domain, BRIL fused to the C-terminus, C-terminally His-tagged (human) (UniProt Q9NZQ7).
For assay [6], the target named is human PD-L1 transmembrane domain mutant F259A, BRIL fused to the C-terminus, C-terminally His-tagged (human) (UniProt Q9NZQ7).

Where a chain is given by its changes, count along the chain named. In names and notes the source's numbering stands. Results are given in words; binding and its absence hold for the method and conditions named. Some entries that bind do so weakly or less than the wild type. Where a sequence is shown, tags or fusion partners need not be part of it.

B1: bovine CMTM6 protein (CKLF-like MARVEL transmembrane domain-containing protein 6), BRIL fused to the C-terminus (protein, UniProt Q3ZBE8 1-182)
chain: MENGQVYRATTEAHPGPGIGPRSGLAAYFTLSRLTGFRRLKLLELVLSLLAFICEEVVSQCTLCGGLYFFEFVSCSAFLLSLLILVVYCTPVYDRVDPAKVKSSDFFITLGTGLVFFVASLTFTLTHDNTIAEIAAIVFGMLASLTYLAEFSFMLREKLKEPRPRKGEATMRREHLTEPLNA
With B1, the binding result in assay [1] is “no binding”; in assay [2], “binds”; in assay [3], “no binding”; in assay [4], “binds”; in assay [5], “binds”; in assay [6], “binds”.

B2: bovine CMTM6 TM2/TM3 double mutant F69A/F72A, BRIL fused to the C-terminus (protein, UniProt Q3ZBE8 1-182)
chain: B1 chain with F69A, F72A
On to B2, for which the binding result in assay [5] is given as “binds”.
